These are yes or no findings as the source states them, for the method shown. Tags and fused reporters may be left off the sequences shown.
Tests used:
[1] = target: SolG (nonribosomal peptide synthetase, module 5 of the solanimycin cluster) (Dickeya solani MK10); assay: native gel or EMSA; blue native PAGE of SolG expressed in E. coli
[2] = target: SolG (nonribosomal peptide synthetase, module 5 of the solanimycin cluster) (Dickeya solani MK10); assay: AUC; analytical ultracentrifugation of SolG expressed in E. coli; both purified
[3] = target: SolG (nonribosomal peptide synthetase, module 5 of the solanimycin cluster) (Dickeya solani MK10); assay: native MS; non-denaturing mass spectrometry of SolG expressed in E. coli; both purified

Measured: binding

B1: SolG (nonribosomal peptide synthetase, module 5 of the solanimycin cluster) (enzyme, UniProt A0ABU4EJF4 1-1163)
chain: MSDFEQLLLTLEEAKISISLDNDDLVITSAKGALTSEIKSALREHKMTMVHALRNGKRLSNAFEVVVPANKITPETTAITPELLPLIDFTQKDIDHVVEQVSGGVSNIQDIYSLAPLQEGILFHHMLASKGDPYLQTGQMTFDSREKVDNYLAAVQQVIDRHDIMRTGFYWEGVSTPCQVVQRQATLHVLEVDLDPANGPIAKQLSERFDPSHYSIDLAKPPLLHAFVAYDKRSDRWEMFRVLHHLIDDITSVLILSAEIHTFLAGRGHTLPAAQPFRRLIAQVRLGKSPEEHERYFRATLADIDEPTAPYGLVNMLDDFDIIEVTRKVPQRLNDALRAHARRLGVSLGSICHLAWGQVLACISGQDSVVFGTILFGRMHAGDGADQIMGPFINTLPLRLDMHGASVQESVRTTHKRLAELLSHEHASLALALRCSGISGSTPLFNTLFNYRHNRESESKSLDFVVPEADQWDGFEERTTYPITLSVDDYGNALGLNIQVVDSLDPELLFAYTQQALENIAGALDSAPNTPMQQIAILPAAERHLLLNEWNNTGKVYPDVAYTHQMFEAQVKLTPSATALRFGDRELSYAELNALSNQLAHHLRQQGVKPDDRVAICLDRSIEMVVGLMGIIKAGGAYVPLDPDYPQERLSYILQDSAPTLLLLDQRGREVTAELDTTGIAAFELDVASLARSSLSTESLSPAELGLTSRHLAYVIYTSGSTGKPKGVENEHRGLINRLQWMQDAYQLDSSDAVLQKTTFSFDVSVWEFFWPLSVGATLVVAPPGAHKDTQALAQVIQSNNITTIHFVPSMLNLFLANDSVAACRSLRRIVCSGEALSSASVVRCHKLLPDTAVHNLYGPTEAAIDVTSWTCPKDLPESATVPIGRPIANLRIYLLDQHLRPVPRGVVGELYIGGVGVARGYLNRPDLTAERFVNDPFVSDADARMYRTGDVARYLADGDIDYLGRNDNQVKIRGFRIELGEIDAELLKQPTVREAVVVARGDVQGDLRLVAYVVLSAEAETEGLGLSEHIAQWRSSLAAQLPEYMVPAAFVKLDQLPLTANGKLDRKALPLPDDSSFSRSAYEAPQGDVEIAMAELWQELLGVERIGRHDNFFELGGHSLLAVQLMEHLRQRDLSTEIRALFDSPTLAELSARTIELDEMRL
no binding: all assays above
